Assay results reported in patent publication US7794972B2, “Benzoate-and anthranilate-inducible promoters” (priority 2002, dated 2010).

Test system: P. fluorescens
Test: Metabolism of the inducer by the host cells (HPLC of culture broth)
Conditions: for metabolism of the inducer by P. fluorescens: strain that is no knock-out

SMILES	metabolism of the inducer by antA knock-out strain (insertional inactivation of antA, 20 L scale, during induction)	metabolism of the inducer by P. fluorescens	metabolism of the inducer by benAB knock-out strain (benAB deletion mutants, ~5 mM benzoate, 24 hr, HPLC of cell-free broth)
Nc1ccccc1C(=O)[O-].[Na+] [sodium anthranilate]	not metabolized	–	–
Nc1cccc(Cl)c1C(=O)O [6-chloro-anthranilate, 6-chloroanthranilate]	–	not metabolized	–
O=C([O-])c1ccccc1.[Na+] [sodium benzoate]	–	metabolize benzoate efficiently	unable to metabolize benzoate
